# Results: US20220249476A1, “MutL LOSS PREDICTS SENSITIVITY TO CDK4/6 INHIBITORS IN CANCER” (Baylor College of Medicine, priority 2018, published 2022)
# For at least one compound, name, drawing or mass did not settle the structure.
# Tests used:
# [1] = test system: bladder cancer cell line, RT4; assay: Dose response to abemaciclib in bladder cancer cells (RT4); format: cell-based; conditions: intrinsically MutL- RT4 compared with MutL+ cells
# MCF7 cells = assay: Growth assay (Alamar blue) in MCF7 cells with knockdown of DDR genes; format: cell-based, human; conditions: for sensitivity (growth inhibition relative to vehicle treated cells): 100 nM fulvestrant, 1 μM Palbociclib
# Experimental: (§1) ZR75.1 and MCF7 parental cells were from ATCC, 2015 and 2017 respectively, and tested for mycoplasma contamination upon arrival using the Lonza Mycoalert Plus Kit (CAT# LT07-710) as per the manufacturer's instructions, and annually since. Both lines were maintained in RPMI 1640 1X w/ L-glutamine and 1% Penicillin/Streptomycin (Sigma-Aldrich, CAT#P4333—100 mL). Cell lines used for experiments were <20 passages. Transient transfections with esiRNA (Sigma-Aldrich) towards human NEIL2 (CAT#EHU158461), CETN2 (CAT#EHU137031), ERCC1 (CAT#EHU156971), RAD23B (CAT#EHU145881) and POLM (CAT#SASI_Hs02_003344553), or scrambled control used at 50 nmoles/L each were delivered using Polypluys jetPRIME® transfection reagent (CAT#114-07) as per the manufacturer's instructions. Cells were plated for experiments 48 hrs after transfection. Stable selection with puromycin after infection with lentivirus harboring RNAi oligos (ABM) against human NEIL2 (CAT#i014980a), CETN2 (CAT#i004479a), and ERCC1 (CAT#i007023a) or scrambled control (CAT#i000238c) was conducted using manufacturer's protocol. Growth assays were repeated independently in triplicate as previously reported (50) using Alamar blue to detect cell viability. Final readings were between 4-6 days after initial drug treatment and fold change plotted for analysis. Fulvestrant(Fisher Scientific CAT#506242), 4-OHT(Sigma-Aldrich CAT#H7904), Palbociclib (ThermoFisher CAT#508548) and Abemaciclib (ThermoFisher CAT#NC0577560), dissolved in DMSO, and β-estradiol (Sigma-Aldrich CAT#E2758-1G), dissolved in water, at 10 mmoles/L were stored long term at −80 C with working stocks at −20 C. Cells were treated 24 hours after plating with fresh drug added every 48 hrs until the end of the experiment. Estradiol addition experiments were conducted in phenol red-free DMEM with 10% charcoal stripped serum.
# [2] = test system: bladder cancer cell line, J-82; assay: Dose response to abemaciclib in bladder cancer cells (J-82, siRNA against MLH1); format: cell-based; conditions: MutL+ J-82 with MLH1 knocked down by pooled siRNA
# CRC line, HT-115 = assay: Dose response to abemaciclib in colorectal cancer cells; format: cell-based; conditions: intrinsically MutL- HT-115 compared with MutL+ cells
# ZR-75 cells = assay: Growth assay (Alamar blue) in ZR-75 cells with knockdown of DDR genes; format: cell-based, human; conditions: estrogen deprived siCETN2, siNEIL2, siERCC1 ZR-75 cells vs siScr; charcoal stripped serum
# Experimental: as §1, with “Fulvestrant(Fisher Scientific CAT#506242), 4-OHT(Sigma-Aldrich CAT#H7904), Palbociclib (ThermoFisher CAT#508548) and Abemaciclib (ThermoFisher CAT#NC0577560), dissolved in DMSO, and β-estradiol (Sigma-Aldrich CAT#E2758-1G), dissolved in water, at 10 mmoles/L were stored long term at −80 C with working stocks at −20 C. Cells were treated 24 hours after plating with fresh drug added every 48 hrs until the end of the experiment. Estradiol addition experiments were conducted in phenol red-free DMEM with 10% charcoal stripped serum.” left out
# [3] = test system: ER+ breast, bladder, pancreatic, and ovarian cancer types; assay: Correlation between frequency of MutL dysregulation and response to Palbociclib across cancer types; conditions: cancer types with increased frequency of MutL over MutS dysregulation vs predominant MutS dysregulation (ER- breast, lymphoma)
# [4] = MCF7 cells with stable knockdown of CETN2, NEIL2 or ERCC1
# [5] = control MCF7 cells (scrambled RNAi)
Structure (SMILES),susceptibility (dose response) [1],sensitivity (growth inhibition relative to vehicle treated cells) (MCF7 cells; [4]),sensitivity (growth inhibition relative to vehicle treated cells) (MCF7 cells; [5]),sensitivity (dose response) [2],"susceptibility (dose response) (CRC line, HT-115)",growth response to estradiol stimulation (ZR-75 cells),"growth response to estradiol stimulation (MCF7 cells; estrogen deprived siCETN2, siNEIL2, siERCC1 MCF7 cells vs siScr, charcoal stripped serum)",response / sensitivity by cancer type [3]
"CCN1CCN(Cc2ccc(Nc3ncc(F)c(-c4cc(F)c5nc(C)n(C(C)C)c5c4)n3)nc2)CC1 [abemaciclib, Abemaciclib]",more susceptible,persistent sensitivity,comparable sensitivity,induces sensitivity,more susceptible,–,–,–
"C[C@]12CC[C@@H]3c4ccc(O)cc4CC[C@H]3[C@@H]1CC[C@@H]2O [estradiol, β-estradiol]",–,–,–,–,–,attenulated growth response,attenulated growth response,–
"CC(=O)c1c(C)c2cnc(Nc3ccc(N4CCNCC4)cn3)nc2n(C2CCCC2)c1=O [palbociclib, Palbociclib]",–,persistent sensitivity,comparable sensitivity,–,–,–,–,more like to be sensitive
